Screen size: about 320,000 compounds; about 2,100 (0.66%) were called active. The inconclusive results got no clear call from the source; some entries with a clear call stand among them for comparison. Calls come from the whole dose curve; as a rule, active = well fitted inhibition curve with a large enough effect in the signal ratio, with a control signal flat (not every such curve was filed as active); inconclusive = small, poorly fitted or top-dose-only effect, or effect the other way, or a change in a side signal; inactive = flat fitted curve, though single readings scatter; the % refers to the signal ratio. Where the call is inconclusive, the potency comes from a doubtful curve fit.
Assay: qHTS Assay for Lipid Storage Modulators in Drosophila S3 Cells
Conditions: BODIPY lipid droplet fluorescence, 18-24 h, cells fed with added oleic acid; lipid storage change, negative = inhibition: at 46.1 µM (top of the series) unless noted
Summary of the method: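 Laser-scanning cytometry quantifies lipid droplet accumulation (500–530 nm total intensity; droplet/cell object ratio) in oleic acid-fed (400 uM added) Drosophila S3 cells treated with a concentration series. 20 uM Triacsin C defined 100% inhibition.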
% is set by controls: 0 for no effect and ±100 for the full control effect; potency is the fitted concentration of half-maximal effect.

| Structure (SMILES) | lipid storage change, negative = inhibition | Potency |
| --- | --- | --- |
| O=C(CSc1ncn[nH]1)Nc1nc(-c2ccccc2)ns1 | inconclusive: -63.3% | – |
| CC1CCCCN1S(=O)(=O)c1ccc(S(=O)(=O)N2CCCC2)cc1 (stereo unspecified) | – | inconclusive: 29.1 µM [falling, single point] |
| COc1cc(C(=O)N2CC(C)OC(C)C2)c([N+](=O)[O-])cc1OC (stereo unspecified) | – | inconclusive: 14.6 µM [falling, partial curve, poor fit] |
| COc1ccc(NC(=O)COC(=O)c2ccncc2)c(OC)c1 | inconclusive: 0.748% | – |
| COc1ccc(C2(c3ccc(OC)cc3)NC(=O)N(CC(=O)N(C)C)C2=O)cc1 | – | inconclusive: 29.1 µM [activator, partial curve] |
| Cc1nnc(N(C(=O)c2cnccn2)c2ccccc2)s1 | – | inconclusive: 0.092 µM [activator, single point] |
| Cc1ccc(S(=O)(=O)N(C)c2ccc(OC(=O)CN3C(=O)NC4(CCCC4)C3=O)cc2)cc1C | inconclusive: 2.93% | – |
| O=C(CNCc1ccccn1)Nc1ccc([N+](=O)[O-])cc1C(=O)Nc1ccccc1F | – | inconclusive: 4.11 µM [falling, full curve, poor fit] |
| CN(C)C=C1C(=O)c2ccccc2C1=O | inconclusive: 32.8% | – |
| C=CCc1ccccc1OCC(O)CN1CCN(C(=O)OCC)CC1 (stereo unspecified) | inconclusive: -58.1% | – |
| COc1ccccc1NS(=O)(=O)c1ccc(C)c(C(N)=O)c1 | inconclusive: 45.4% | – |
| O=C(Nc1ccc(Br)cc1)c1cccc(-n2cnnn2)c1 | inconclusive: -54.8% | – |
| COc1ccc(Cl)cc1C(=O)Nc1ccc(Br)c(C)n1 | inconclusive: 10.4% | – |
| CC1=C([N+](=O)[O-])C(c2ccc(Cl)cc2)NC(=O)N1C (stereo unspecified) | inconclusive: 20.2% | – |
| O=C1OC(CC(=O)N(Cc2nnc(-c3ccccc3Cl)o2)C2CC2)c2ccccc21 (stereo unspecified) | inconclusive: 39.9% | – |
| COCCNC(=O)Cn1cc(C(=S)N2CCOCC2)c2ccccc21 | inconclusive: -60.8% | – |
| COC(=O)Nc1c(C)nn(Cc2ccccc2C)c1C | inconclusive: 59.1% | – |
| COc1ccc(/C=C2\SC(=O)N(CC(=O)NC3C=CS(=O)(=O)C3)C2=O)cc1 (stereo unspecified) | inconclusive: 2.2% | – |
| CCOC(=O)c1c(NC(=S)NC(=O)c2cnn(CC)c2)sc2c1CCC(C)C2 (stereo unspecified) | inconclusive: -11.6% | – |
| Cc1cc(Nc2cccc(Cl)c2)nc(NCc2ccccc2)n1 | – | inconclusive: 4.11 µM [falling, single point] |
| COc1ccc(Cl)cc1C(=O)NNC(=O)CCNC(C)=O | – | inconclusive: 0.146 µM [falling, single point] |
| COc1ccc(CCNC(=O)c2ccc3c(c2)OCO3)cc1 | – | inconclusive: 29.1 µM [activator, single point] |
| COCCc1nc2ccc(C(=O)N3CCCCC3COC)cc2o1 (stereo unspecified) | inconclusive: 41.2% | – |
| Cc1cc(C(=O)COC(=O)c2ccc(Br)o2)c(C)n1Cc1ccco1 | inconclusive: 18.1% | – |
| CCNC(=O)COc1ccc2ccccc2c1 | inconclusive: -16.5% | – |
| NC(=O)C1CCN(C(=O)c2ccc([N+](=O)[O-])cc2NC(=O)c2cccs2)CC1 | inconclusive: -104% | – |

Structures from the list above with a thiophene ring, fused or not:

| Structure (SMILES) | lipid storage change, negative = inhibition | Potency |
| --- | --- | --- |
| CCOC(=O)c1c(NC(=S)NC(=O)c2cnn(CC)c2)sc2c1CCC(C)C2 (stereo unspecified) | inconclusive: -11.6% | – |
| NC(=O)C1CCN(C(=O)c2ccc([N+](=O)[O-])cc2NC(=O)c2cccs2)CC1 | inconclusive: -104% | – |

Next part.

| Structure (SMILES) | lipid storage change, negative = inhibition | Potency |
| --- | --- | --- |
| CN(C)CCNC(=O)c1[nH]nc2c1CCc1ccccc1-2 | inconclusive: 0.275% | – |
| O=C(CN1CCN(c2ccccc2)CC1)Nc1ccc(F)cc1 | inconclusive: 7.82% | – |
| O=C(c1ccc(NS(=O)(=O)c2cccc(C(F)(F)F)c2)cc1)N1CCCC1 | inconclusive: -11% | – |
| COc1ccc(C2CC(=O)N3CN(c4ccccc4F)CSC3=C2C#N)cc1OC (stereo unspecified) | – | inconclusive: 6.51 µM [falling, single point] |
| CCCC(c1nnnn1Cc1ccco1)N1CCC(C(N)=O)CC1 (stereo unspecified) | inconclusive: -31.9% | – |
| O=C(CCC1CCCCC1)Nc1cc(C(F)(F)F)ccc1N1CCOCC1 | inconclusive: 48.5% | – |
| O=C(c1cc2cc(Br)ccc2o1)N1CCCC1 | inconclusive: 3.8% | – |
| CCn1c(SCC(=O)N2CCCc3ccccc32)nc2c(c1=O)SC(C)C2 (stereo unspecified) | inconclusive: 15.2% | – |
| CS(=O)(=O)c1cccc(NC(=O)C2CCCN2S(=O)(=O)c2ccc(F)cc2)c1 (stereo unspecified) | – | inconclusive: 0.058 µM [activator, full curve] |
| Cc1cc(C)c(C#N)c(OCC(=O)c2ccccc2)n1 | inconclusive: 33.7% | – |
| CCOC(=O)CNC(=O)c1c(C)nn(-c2ccccc2)c1Cl | – | inconclusive: 29.1 µM [rising, single point] |
| COc1cc2c(cc1OC)C(c1ccccc1C)CC(=O)N2 (stereo unspecified) | – | inconclusive: 29.1 µM [activator, single point] |
| COC(=O)C1=C(C)N(C)C(=O)NC1c1c(OC)ccc2ccccc12 (stereo unspecified) | inconclusive: 15.6% | – |
| O=C(NCCN1CCOCC1)c1cccc(S(=O)(=O)N2CCCCCC2)c1 | inconclusive: 26.9% | – |
| O=C(Nc1nc(-c2ccccc2)cs1)C1CCCCN1S(=O)(=O)c1ccccc1 (stereo unspecified) | inconclusive: -9.36% | – |
| CCN(CC(=O)Nc1c(F)cccc1F)C(=O)CCNC(=O)c1ccco1 | inconclusive | – |
| CC(C)c1ccc(CSc2ccc(S(=O)(=O)N3CCOCC3)cn2)cc1 | – | inconclusive: 4.61 µM [activator, partial curve] |
| CCc1noc(C)c1C(=O)N1CCN(S(=O)(=O)c2c(C)cc(C)cc2C)CC1 | – | inconclusive: 0.461 µM [falling, partial curve, poor fit] |
| COCCn1c(C)cc(C(=O)CSc2nnc3ccccn23)c1C | inconclusive: -9.45% | – |
| Clc1ccc(CSc2nncn2-c2ccccn2)cc1 | inconclusive: 95.4% | – |
| Cc1cc(C)nc(SCc2ccc(C(=O)NN=C3CCCC3)cc2)n1 | inconclusive: 16.9% | – |
| CN(Cc1ccccc1)C(=O)CCC1CCN(C(=O)CCC(F)(F)F)CC1 | inconclusive: -22.8% | – |
| COc1ccc(OC)c(-c2csc(NC(=O)c3ccc(OCC4CCCO4)cc3)n2)c1 (stereo unspecified) | – | inconclusive: 23.1 µM [falling, single point] |
| COc1ccccc1CCC(=O)Nc1ncc(C)s1 | inconclusive: -2.95% | – |
| Cc1ccc(C(=O)N/C(=C\c2cccs2)C(=O)NCCCn2ccnc2)cc1 | – | inconclusive: 0.058 µM [falling, full curve, poor fit] |
| C=CCc1ccc(OCCOCCNCCCC)c(OC)c1 | – | inconclusive: 4.11 µM [falling, single point] |

Fetched by structure from above (two):

| Structure (SMILES) | lipid storage change, negative = inhibition | Potency |
| --- | --- | --- |
| CCc1noc(C)c1C(=O)N1CCN(S(=O)(=O)c2c(C)cc(C)cc2C)CC1 | – | inconclusive: 0.461 µM [falling, partial curve, poor fit] |
| O=C(CCC1CCCCC1)Nc1cc(C(F)(F)F)ccc1N1CCOCC1 | inconclusive: 48.5% | – |

Remaining list, next part:

| Structure (SMILES) | lipid storage change, negative = inhibition | Potency |
| --- | --- | --- |
| O=C(O)c1ccc(/C=N/N2CCN(Cc3ccccc3)CC2)cc1 | inconclusive: 13.3% | – |
| Cc1cc(=O)oc(C)c1C(=O)NCCc1ccccc1 | inconclusive: 48.8% [at 9.22 µM] | – |
| O=C(Nc1ccc2c(c1)OCO2)c1cccc2c1C(=O)N(Cc1cccnc1)C2 | – | inconclusive: 2.06 µM [activator, partial curve] |
| CC1(CCc2ccccc2)NC(=S)N(c2ccccc2)N1 (stereo unspecified) | inconclusive: 29.7% | – |
| O=C1[C@@H]2Cc3c([nH]c4ccccc34)C(c3ccccc3)N2C(=O)CN1C1CC1 (stereo partly specified) | – | active: 4.11 µM |
| CCCCC(c1nnnn1CS(=O)(=O)c1ccc(C)cc1)N1CCC(C(N)=O)CC1 (stereo unspecified) | inconclusive: 34.3% | – |
| COCC1CCCCN1C(=O)c1ccc2oc(CCc3ccccc3)nc2c1 (stereo unspecified) | inconclusive: -46.8% | – |
| CCOc1ccc(NC(=S)N2CCC(NC(=O)c3ccco3)CC2)cc1 | inconclusive: 108% | – |
| Cc1nnc2n1N=CC=C(c1ccccc1)S2 | inconclusive: 145% | – |
| Cc1ccc(CSCCNC(=O)CN(c2ccc(F)cc2)S(C)(=O)=O)cc1 | inconclusive: -18.6% | – |
| Cc1ccccc1-c1cc(C(=O)NCc2cccc(C(F)(F)F)c2)nn1CC1CC(c2cccc([N+](=O)[O-])c2)=NO1 (stereo unspecified) | – | inconclusive: 1.3 µM [falling, partial curve, poor fit] |
| COC(=O)c1cc(S(=O)(=O)NCc2cccc(OC)c2)cn1C | – | inconclusive: 0.082 µM [activator, full curve, poor fit] |
| COc1ccc(N(CC(=O)NCc2cccnc2)S(=O)(=O)c2c(C)nn(C)c2C)cc1 | – | inconclusive: 6.51 µM [cytotoxic, single point] |
| Cc1nc(C)c(C(=O)Nc2ccccc2-c2ccccc2)o1 | – | inconclusive: 29.1 µM [falling, single point] |
| CCc1cc2c(=O)n(Cc3ccco3)c(SCC(=O)N(C)C3CCS(=O)(=O)C3)nc2s1 (stereo unspecified) | inconclusive: 35% | – |
| Cc1ccccc1OCC(O)CN1CCN(CC(O)COc2ccccc2C)CC1 (stereo unspecified) | inconclusive: 11.1% | – |
| O=C(CN1c2ccccc2Sc2ccccc21)NNC(=O)Nc1cccc(Cl)c1 | inconclusive: -10.3% | – |
| COc1ccc(CCNC(=O)CCS(=O)(=O)c2cccc3nsnc23)cc1OC | – | inconclusive: 13 µM [activator, partial curve] |
| COc1cc(NC(=O)CSc2nnc3ccc(-c4ccncc4)nn23)cc(OC)c1 | inconclusive: 11.5% [at 9.22 µM] | – |
| S=C(Nc1ccccc1)N(CCN1CCOCC1)Cc1cccc(Cl)c1 | inconclusive: -63% | – |
| CCOC(=O)[C@H]1[C@H]2COc3ccc(Br)cc3[C@H]2N2C(=O)CNC(=O)[C@@]12C | inconclusive: 52.6% | – |
| COc1ccc(OCc2cc(C(=O)N3C[C@@H](C)O[C@@H](C)C3)no2)c(Cl)c1 | – | inconclusive: 2.31 µM [activator, partial curve, poor fit] |
| O=C(CCCCCN1C(=O)c2ccccc2C1=O)NCCc1nc2ccccc2[nH]1 | inconclusive: -0.0422% [at 9.22 µM] | – |
| CC(=O)Nc1ccccc1-c1ccc(C)o1 | – | inconclusive: 1.16 µM [activator, single point] |
